US8278100B2, “Lasonolide compounds as reagents for inducing premature chromosome condensation and methods for treating disorders” (The United States of America, as Represented by the …, priority 2008, dated 2012)

Experiments:
[1] = system: Burkitt's Lymphoma CA46 cells; assay: PCC induction and PI staining; format: cell-based, human; settings: co-treatment with Lasonolide A, CA 46 cells
Experimental: (§1) Burkitt's Lymphoma CA46 cells (500,000) (FIG. 1B) or breast cancer MDA-MB-231 cells (500,000) (FIG. 1A) were treated by 100 nM Lasonolide A (stock solution 100 μM in DMSO) for 1 h. Lymphocytes were treated with 200 nM Lasonolide A for 1 h. Cells were harvested with centrifuging on 2,000 rpm for 5 min at 4° C. Pellets were washed once by PBS and re-suspended in 1 mL PBS. 200 μL cells mixture were added to the chamber for cytospining. Cells were cytospun on 800 rpm for 10 min; slides were fixed in fresh-made 4% paraformaldehyde fixation for 20 min at room temperature, then moved to 70% ethanol for 20 min. Slides were stained with Propidium Iodide (“PI”) (20 μg/mL) and RNase A (100 μg/mL) for 15 min. Slides were washed with PBS for three times and mounted with Vectashield anti-fade mounting media (Vector Laboratories, Inc., Burlingame, Calif.). Images were taken using a Nikon Eclipse TE-300 confocal microscope.

tumor cells = assay: Premature chromosome condensation (PCC) induction, cells not specified; format: cell-based; settings: co-treatment with Lasonolide A
Experimental: as §1

O=C(CCCCCCC(=O)Nc1ccccc1)NO [SAHA, suberoylanilide hydroxamic acid, reference compound]
effect of the added inhibitor on PCC induction by Lasonolide A [1]: inhibited partially the PCC induction
effect of the added inhibitor on PCC induction by Lasonolide A (tumor cells): could inhibit the Lasonolide A-induced PCC partly
